Test results: the supplement of paper PMC10849652
The list shows a part of the results.

Amino acid sequences for entries named in this document (tags omitted). A change or cut given only in a name is not applied to a line headed by its entry.
UniProt P27540, whole entry, looked up: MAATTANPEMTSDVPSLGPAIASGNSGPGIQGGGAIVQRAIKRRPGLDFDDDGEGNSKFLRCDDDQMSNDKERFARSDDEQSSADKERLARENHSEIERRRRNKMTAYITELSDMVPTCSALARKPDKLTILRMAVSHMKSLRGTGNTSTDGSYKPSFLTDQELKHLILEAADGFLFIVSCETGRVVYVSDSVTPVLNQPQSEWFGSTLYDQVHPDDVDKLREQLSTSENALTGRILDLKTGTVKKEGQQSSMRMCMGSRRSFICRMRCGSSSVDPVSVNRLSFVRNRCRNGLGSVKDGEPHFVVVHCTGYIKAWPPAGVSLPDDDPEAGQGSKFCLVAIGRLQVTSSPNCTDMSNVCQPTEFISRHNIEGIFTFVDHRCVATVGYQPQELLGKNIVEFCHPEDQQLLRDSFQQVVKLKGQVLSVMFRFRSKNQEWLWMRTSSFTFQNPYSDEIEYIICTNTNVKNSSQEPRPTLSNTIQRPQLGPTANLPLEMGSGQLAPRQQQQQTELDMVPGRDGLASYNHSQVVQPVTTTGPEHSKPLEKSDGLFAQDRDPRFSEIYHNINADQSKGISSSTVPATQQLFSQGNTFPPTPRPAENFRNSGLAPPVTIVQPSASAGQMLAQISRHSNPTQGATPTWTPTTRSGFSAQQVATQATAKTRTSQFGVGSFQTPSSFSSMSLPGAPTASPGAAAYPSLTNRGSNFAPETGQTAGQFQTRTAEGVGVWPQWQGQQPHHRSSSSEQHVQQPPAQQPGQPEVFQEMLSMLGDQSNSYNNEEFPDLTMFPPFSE
UniProt Q9H0R1: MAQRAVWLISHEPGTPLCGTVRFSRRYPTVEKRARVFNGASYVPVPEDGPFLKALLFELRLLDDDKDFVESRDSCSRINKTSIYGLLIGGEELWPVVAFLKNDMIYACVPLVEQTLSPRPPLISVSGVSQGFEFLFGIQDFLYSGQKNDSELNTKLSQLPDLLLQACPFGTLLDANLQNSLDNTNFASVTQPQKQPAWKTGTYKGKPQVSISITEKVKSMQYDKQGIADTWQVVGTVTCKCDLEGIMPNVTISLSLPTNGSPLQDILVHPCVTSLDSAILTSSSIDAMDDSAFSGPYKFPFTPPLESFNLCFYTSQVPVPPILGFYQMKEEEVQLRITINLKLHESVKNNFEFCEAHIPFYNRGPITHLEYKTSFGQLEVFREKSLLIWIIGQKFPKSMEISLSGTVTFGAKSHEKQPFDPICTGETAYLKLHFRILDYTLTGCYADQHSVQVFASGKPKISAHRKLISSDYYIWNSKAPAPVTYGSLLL
UniProt Q8N392: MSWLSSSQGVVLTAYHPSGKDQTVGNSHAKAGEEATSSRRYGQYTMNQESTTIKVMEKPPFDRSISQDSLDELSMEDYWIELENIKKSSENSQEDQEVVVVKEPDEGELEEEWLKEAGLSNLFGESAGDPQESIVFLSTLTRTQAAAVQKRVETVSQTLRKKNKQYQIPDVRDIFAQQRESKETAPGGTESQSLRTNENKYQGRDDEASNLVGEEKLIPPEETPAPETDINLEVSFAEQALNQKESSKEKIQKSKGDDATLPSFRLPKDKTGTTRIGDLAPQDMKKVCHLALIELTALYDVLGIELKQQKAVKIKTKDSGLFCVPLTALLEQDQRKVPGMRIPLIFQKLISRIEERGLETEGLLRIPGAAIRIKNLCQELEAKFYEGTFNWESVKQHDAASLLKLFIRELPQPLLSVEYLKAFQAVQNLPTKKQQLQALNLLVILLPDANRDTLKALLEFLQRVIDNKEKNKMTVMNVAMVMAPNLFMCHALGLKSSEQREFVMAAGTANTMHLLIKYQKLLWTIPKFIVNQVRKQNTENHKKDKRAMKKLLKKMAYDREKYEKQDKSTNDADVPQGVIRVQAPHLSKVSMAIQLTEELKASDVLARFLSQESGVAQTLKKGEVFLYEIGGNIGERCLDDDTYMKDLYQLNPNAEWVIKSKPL
UniProt Q9UKG1: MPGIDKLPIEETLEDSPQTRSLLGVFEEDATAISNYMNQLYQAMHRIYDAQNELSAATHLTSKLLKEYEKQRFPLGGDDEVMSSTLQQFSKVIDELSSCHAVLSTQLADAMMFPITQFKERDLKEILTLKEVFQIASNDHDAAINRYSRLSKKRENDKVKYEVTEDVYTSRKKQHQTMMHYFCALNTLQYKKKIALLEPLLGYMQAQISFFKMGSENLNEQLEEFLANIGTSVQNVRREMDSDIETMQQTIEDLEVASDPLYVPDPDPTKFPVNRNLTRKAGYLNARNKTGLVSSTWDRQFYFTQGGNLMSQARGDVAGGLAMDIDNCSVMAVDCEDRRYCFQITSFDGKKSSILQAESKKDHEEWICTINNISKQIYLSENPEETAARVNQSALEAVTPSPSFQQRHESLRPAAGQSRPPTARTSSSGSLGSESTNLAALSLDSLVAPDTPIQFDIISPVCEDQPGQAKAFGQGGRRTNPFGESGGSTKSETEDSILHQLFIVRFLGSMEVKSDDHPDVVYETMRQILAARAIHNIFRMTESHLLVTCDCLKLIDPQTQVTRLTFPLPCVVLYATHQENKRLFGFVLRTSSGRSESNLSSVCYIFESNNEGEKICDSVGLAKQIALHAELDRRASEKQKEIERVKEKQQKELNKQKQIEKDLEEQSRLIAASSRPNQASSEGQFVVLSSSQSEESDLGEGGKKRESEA
UniProt Q8N6H7: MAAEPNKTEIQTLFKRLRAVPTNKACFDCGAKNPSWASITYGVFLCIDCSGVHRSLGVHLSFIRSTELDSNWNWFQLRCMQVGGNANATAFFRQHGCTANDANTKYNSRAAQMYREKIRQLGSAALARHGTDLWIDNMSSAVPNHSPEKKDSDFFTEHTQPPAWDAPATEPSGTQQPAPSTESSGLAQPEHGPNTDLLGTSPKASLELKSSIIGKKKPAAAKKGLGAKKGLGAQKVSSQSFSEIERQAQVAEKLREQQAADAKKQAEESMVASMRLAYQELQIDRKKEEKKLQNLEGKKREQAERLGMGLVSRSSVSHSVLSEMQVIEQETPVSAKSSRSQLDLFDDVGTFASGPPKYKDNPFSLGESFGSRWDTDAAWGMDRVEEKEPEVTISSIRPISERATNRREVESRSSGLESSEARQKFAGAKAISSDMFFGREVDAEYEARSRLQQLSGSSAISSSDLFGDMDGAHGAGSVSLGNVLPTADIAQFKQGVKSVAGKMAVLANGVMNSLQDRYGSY
UniProt Q8IVW6: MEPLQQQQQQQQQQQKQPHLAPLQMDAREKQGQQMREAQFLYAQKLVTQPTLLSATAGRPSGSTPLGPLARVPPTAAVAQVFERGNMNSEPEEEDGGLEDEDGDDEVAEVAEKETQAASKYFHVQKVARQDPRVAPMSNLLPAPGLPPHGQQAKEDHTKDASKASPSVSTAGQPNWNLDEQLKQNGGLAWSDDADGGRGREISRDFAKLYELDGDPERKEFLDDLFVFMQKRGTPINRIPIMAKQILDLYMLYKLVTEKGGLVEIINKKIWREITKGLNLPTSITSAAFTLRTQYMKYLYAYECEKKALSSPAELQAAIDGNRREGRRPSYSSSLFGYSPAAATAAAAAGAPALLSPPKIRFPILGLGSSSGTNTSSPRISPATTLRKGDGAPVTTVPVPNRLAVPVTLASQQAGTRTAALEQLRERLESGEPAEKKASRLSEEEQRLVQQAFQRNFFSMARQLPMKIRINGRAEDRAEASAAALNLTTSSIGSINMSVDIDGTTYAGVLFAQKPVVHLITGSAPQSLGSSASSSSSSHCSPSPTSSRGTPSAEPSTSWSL
UniProt Q9Y6D5: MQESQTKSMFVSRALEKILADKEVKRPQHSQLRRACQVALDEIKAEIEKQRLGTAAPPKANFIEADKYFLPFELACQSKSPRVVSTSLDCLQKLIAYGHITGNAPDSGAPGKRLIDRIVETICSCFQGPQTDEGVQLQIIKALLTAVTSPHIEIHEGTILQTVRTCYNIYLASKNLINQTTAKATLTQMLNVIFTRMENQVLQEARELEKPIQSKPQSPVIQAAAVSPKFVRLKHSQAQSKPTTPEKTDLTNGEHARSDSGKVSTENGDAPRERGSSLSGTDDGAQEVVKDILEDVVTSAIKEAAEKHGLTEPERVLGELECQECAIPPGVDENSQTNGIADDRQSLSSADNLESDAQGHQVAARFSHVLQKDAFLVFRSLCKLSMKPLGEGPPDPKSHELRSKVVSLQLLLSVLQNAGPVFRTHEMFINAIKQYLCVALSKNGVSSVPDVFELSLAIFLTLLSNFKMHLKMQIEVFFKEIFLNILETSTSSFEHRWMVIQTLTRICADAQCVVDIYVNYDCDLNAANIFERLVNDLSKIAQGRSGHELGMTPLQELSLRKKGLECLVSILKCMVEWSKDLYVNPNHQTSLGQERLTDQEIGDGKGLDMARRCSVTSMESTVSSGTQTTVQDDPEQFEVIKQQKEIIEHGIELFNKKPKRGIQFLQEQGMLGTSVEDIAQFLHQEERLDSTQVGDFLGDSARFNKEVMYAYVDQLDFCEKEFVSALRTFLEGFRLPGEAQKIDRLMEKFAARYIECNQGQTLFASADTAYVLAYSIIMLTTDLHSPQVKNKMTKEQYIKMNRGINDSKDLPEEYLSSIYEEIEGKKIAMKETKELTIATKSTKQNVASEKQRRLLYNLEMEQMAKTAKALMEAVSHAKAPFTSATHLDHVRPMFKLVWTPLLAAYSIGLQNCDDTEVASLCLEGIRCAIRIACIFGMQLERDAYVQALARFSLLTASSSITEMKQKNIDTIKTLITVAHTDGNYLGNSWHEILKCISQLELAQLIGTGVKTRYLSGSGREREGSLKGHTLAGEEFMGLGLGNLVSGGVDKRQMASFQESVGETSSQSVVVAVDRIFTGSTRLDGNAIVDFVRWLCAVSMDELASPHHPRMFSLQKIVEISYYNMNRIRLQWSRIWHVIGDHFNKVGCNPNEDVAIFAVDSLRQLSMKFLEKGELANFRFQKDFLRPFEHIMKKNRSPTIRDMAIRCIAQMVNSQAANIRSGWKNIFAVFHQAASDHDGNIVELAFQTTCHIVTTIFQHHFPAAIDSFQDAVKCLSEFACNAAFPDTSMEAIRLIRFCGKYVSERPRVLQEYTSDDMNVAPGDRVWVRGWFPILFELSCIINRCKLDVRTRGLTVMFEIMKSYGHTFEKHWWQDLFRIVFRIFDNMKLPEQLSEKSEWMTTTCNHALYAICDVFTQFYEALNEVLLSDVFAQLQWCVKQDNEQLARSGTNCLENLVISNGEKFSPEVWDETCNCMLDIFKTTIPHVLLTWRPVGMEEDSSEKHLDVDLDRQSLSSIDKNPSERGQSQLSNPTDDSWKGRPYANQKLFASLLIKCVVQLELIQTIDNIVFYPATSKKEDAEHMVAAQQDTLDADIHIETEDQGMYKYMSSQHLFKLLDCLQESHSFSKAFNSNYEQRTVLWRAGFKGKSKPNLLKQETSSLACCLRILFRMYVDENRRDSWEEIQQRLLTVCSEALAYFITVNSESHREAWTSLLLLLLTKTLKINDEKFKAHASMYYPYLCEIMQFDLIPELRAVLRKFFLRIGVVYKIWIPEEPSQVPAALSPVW
UniProt Q8TDY4: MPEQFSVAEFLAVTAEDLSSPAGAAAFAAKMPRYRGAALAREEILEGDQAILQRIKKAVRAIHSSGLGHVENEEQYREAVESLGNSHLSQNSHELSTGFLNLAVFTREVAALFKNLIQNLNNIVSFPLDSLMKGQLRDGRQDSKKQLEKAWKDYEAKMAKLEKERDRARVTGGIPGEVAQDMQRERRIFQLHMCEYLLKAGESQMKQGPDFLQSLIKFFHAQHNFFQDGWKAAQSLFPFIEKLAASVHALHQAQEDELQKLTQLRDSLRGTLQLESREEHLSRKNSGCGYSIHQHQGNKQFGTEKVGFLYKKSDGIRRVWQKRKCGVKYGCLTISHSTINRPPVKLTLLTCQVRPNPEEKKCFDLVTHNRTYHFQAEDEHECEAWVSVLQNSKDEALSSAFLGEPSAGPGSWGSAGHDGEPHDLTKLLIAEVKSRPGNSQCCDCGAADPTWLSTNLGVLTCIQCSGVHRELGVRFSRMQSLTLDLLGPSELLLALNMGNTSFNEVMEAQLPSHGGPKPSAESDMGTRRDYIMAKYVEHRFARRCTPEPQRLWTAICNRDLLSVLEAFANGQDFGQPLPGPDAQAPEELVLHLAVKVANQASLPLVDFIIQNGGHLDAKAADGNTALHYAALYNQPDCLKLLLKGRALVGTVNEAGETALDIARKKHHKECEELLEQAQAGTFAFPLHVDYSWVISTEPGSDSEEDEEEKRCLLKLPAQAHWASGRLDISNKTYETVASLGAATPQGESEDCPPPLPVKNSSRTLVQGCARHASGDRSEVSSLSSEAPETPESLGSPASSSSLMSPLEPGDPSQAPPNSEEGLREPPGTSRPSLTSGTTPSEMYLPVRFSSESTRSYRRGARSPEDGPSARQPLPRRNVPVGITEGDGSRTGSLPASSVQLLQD

Tests used:
Test in all cases: log2 fold change, soluble protein after heating vs DMSO (PISA); higher = thermal stabilisation; K562 lysate, 10 uM; active = over 0.2 and 3.5 SD of the protein, either way, in both replicates (recomputed)
erlotinib = compound: C#Cc1cccc(Nc2ncnc3cc(OCCOC)c(OCCOC)cc23)c1 [erlotinib]
Summary of the method: (§1)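 Following dounce homogenisation of K562 pellets in PBS pH 7.4 with 1 mM MgCl2, crude extract at 1 mg/mL protein was incubated for 30 min with 10 μM compound. Aliquots were then heated for 3 min over 48°C-58°C and pooled, NP-40 was added to 0.5% at 4°C, and soluble protein was recovered as the supernatant at 21,000xg for 90 min. Channel-sum-equalised TMTpro 16plex LC-MS/MS quantified this protein. Each value, from duplicates, is a log-two fold change in thermal stability relative to solvent controls.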

[1] = compound: C/C(=N\NC(=O)C1=CC(=CC=C1)S(=O)(=O)N2CCOCC2)/C3=C(C=CC(=C3)Cl)O
Summary of the method: as §1

[2] = compound: C1=CC(=CC=C1C2=NC3=C(N2)C=C(C=C3)C(=O)N)OC4=CC=C(C=C4)Cl
Summary of the method: as §1

[3] = compound: C1=CC2=C(C=CC(=C2)/C=C\3/C(=O)NC(=NCC4=CC=CS4)S3)N=C1
Summary of the method: as §1

[4] = compound: C1=CC2=NC=CN=C2C=C1/C=C/3\C(=O)NC(=O)S3
Summary of the method: as §1

[5] = compound: C1=CC=C(C=C1)C2=NC(=C(N2)C3=CC=NC=C3)C4=CC(=C(C=C4)Cl)O
Summary of the method: as §1

[6] = compound: C1=CC=C2C(=C1)C3=NNC4=CC=CC(=C43)C2=O
Summary of the method: as §1

[7] = compound: C1CCN(C1)C(=O)NC2=CC=CC(=C2)NC3=NC=C(C(=N3)NCCC4=CN=CN4)Br
Summary of the method: as §1

[8] = compound: C1CN(CCC1(CC2=CC=C(C=C2)Cl)N)C3=NC=NC4=C3C=CN4
Summary of the method: as §1

IRAK-1-4 Inhibitor I = compound: C1COCCN1CCN2C3=CC=CC=C3N=C2NC(=O)C4=CC(=CC=C4)[N+](=O)[O-] [IRAK-1-4 Inhibitor I]
Summary of the method: as §1

ibrutinib = compound: C=CC(=O)N1CCC[C@@H](n2nc(-c3ccc(Oc4ccccc4)cc3)c3c(N)ncnc32)C1 [ibrutinib]
Summary of the method: as §1

[9] = compound: CC(=O)c1cnc2ccc(-c3cc(Cl)c(O)c(Cl)c3)nc2c1N[C@H]1CC[C@H](CN(C)C)CC1
Summary of the method: as §1

ralimetinib = compound: CC(C)(C)Cn1c(N)nc2ccc(-c3[nH]c(C(C)(C)C)nc3-c3ccc(F)cc3)nc21 [ralimetinib]
Summary of the method: as §1

[10] = compound: CC(C)(O)CC(=O)NCCn1ccc2ncnc(Nc3ccc(Oc4cccc(C(F)(F)F)c4)c(Cl)c3)c21
Summary of the method: as §1

[11] = compound: CC(C)C1=C2N=C(C=C(N2N=C1)NCC3=CC=CC=C3)NCCCCCCN
Summary of the method: as §1

[12] = compound: CC1=C(C(CC(=O)N1)C2=CC=C(C=C2)C(F)(F)F)C(=O)NC3=C(C=C4C(=C3)C=NN4)F
Summary of the method: as §1

[13] = compound: CC1=C(C2=C(C=C1)C(=O)C3=CC=CC=C3N2CCCN)C
Summary of the method: as §1

[14] = compound: CC1=C(C=C(C=C1)NC(=O)C2=CC(=CC=C2)C(C)(C)C#N)NC3=CC4=C(C=C3)N=CN(C4=O)C
Summary of the method: as §1

[15] = compound: CC1=C(C=C(C=C1)NC(=O)C2=CC(=CC=C2)N(C)C)NC(=O)C3=CC=C(C=C3)O
Summary of the method: as §1

[16] = compound: CC1=CC=C(C=C1)SC2=C3C=C(SC3=CN=C2)C(=O)N
Summary of the method: as §1

Measured: log2 fold change

ARNT (UniProt P27540)
inactive: erlotinib 0.007 | [1] -0.199 | [2] 0.036 | [3] -0.019 | [4] -0.069 | [5] 0.021 | [6] -0.081 | [7] 0.005 | [8] 0.044 | IRAK-1-4 Inhibitor I 0.017 | ibrutinib -0.052 | [9] -0.039 | ralimetinib 0 | [10] -0.029 | [11] 0.007 | [12] 0.056 | [13] -0.021 | [14] -0.012 | [15] -0.072 | [16] 0.007

AP5M1 (UniProt Q9H0R1)
inactive: erlotinib -0.08 | [1] 0.196 | [2] 0.002 | [3] -0.102 | [4] 0.199 | [5] -0.013 | [6] -0.173 | [7] 0.047 | [8] 0.013 | IRAK-1-4 Inhibitor I 0.038 | ibrutinib -0.374 | [9] 0 | ralimetinib 0.025 | [10] -0.052 | [11] 0.005 | [12] -0.012 | [13] 0.062 | [14] -0.024 | [15] 0.108 | [16] 0.034

ARHGAP18 (UniProt Q8N392)
inactive: erlotinib 0.014 | [1] 0.036 | [2] -0.003 | [3] -0.014 | [4] -0.027 | [5] -0.017 | [6] 0.021 | [7] -0.018 | [8] -0.012 | IRAK-1-4 Inhibitor I 0.025 | ibrutinib -0.003 | [9] -0.012 | ralimetinib 0.007 | [10] -0.011 | [11] -0.018 | [12] -0.013 | [13] 0.003 | [14] 0.03 | [15] -0.006 | [16] 0.017

APPL1 (UniProt Q9UKG1)
inactive: erlotinib 0.035 | [1] 0.056 | [2] -0.013 | [3] -0.007 | [4] -0.015 | [5] 0.001 | [6] -0.023 | [7] -0.025 | [8] 0.018 | IRAK-1-4 Inhibitor I -0.003 | ibrutinib 0.031 | [9] -0.003 | ralimetinib 0.008 | [10] -0.028 | [11] -0.008 | [12] 0.032 | [13] -0.028 | [14] 0.092 | [15] -0.001 | [16] -0.02

ARID1B isoform 3 (UniProt Q8NFD5)
inactive: erlotinib 0.064 | [1] 0.065 | [2] 0.047 | [3] 0.029 | [4] 0.016 | [5] -0.001 | [6] -0.019 | [7] -0.015 | [8] -0.035 | IRAK-1-4 Inhibitor I 0.02 | ibrutinib -0.056 | [9] -0.031 | ralimetinib 0.026 | [10] 0.001 | [11] 0.016 | [12] -0.008 | [13] 0.019 | [14] -0.025 | [15] -0.034 | [16] -0.031

ARAP1 (UniProt Q96P48)
inactive: erlotinib 0.003 | [1] -0.164 | [2] -0.041 | [3] 0.024 | [4] 0.022 | [5] 0.022 | [6] 0.013 | [7] -0.01 | [8] -0.007 | IRAK-1-4 Inhibitor I 0.008 | ibrutinib -0.01 | [9] 0.002 | ralimetinib 0.016 | [10] 0.028 | [11] 0.003 | [12] 0.02 | [13] -0.01 | [14] 0.005 | [15] 0.057 | [16] 0.006

ARFGAP3 (UniProt Q9NP61)
inactive: erlotinib -0.002 | [1] -0.021 | [2] 0.04 | [3] 0.017 | [4] -0.049 | [5] -0.005 | [6] 0.015 | [7] -0.02 | [8] 0.009 | IRAK-1-4 Inhibitor I -0.008 | ibrutinib -0.004 | [9] -0.012 | ralimetinib 0.009 | [10] 0.025 | [11] 0.001 | [12] 0.023 | [13] 0 | [14] 0.055 | [15] -0.021 | [16] -0.024

APIP (UniProt Q96GX9)
inactive: erlotinib -0.024 | [1] -0.077 | [2] -0.014 | [3] 0.004 | [4] 0 | [5] -0.002 | [6] -0.026 | [7] 0.03 | [8] 0.078 | IRAK-1-4 Inhibitor I -0.012 | ibrutinib -0.031 | [9] -0.009 | ralimetinib 0.05 | [10] -0.004 | [11] 0.004 | [12] 0.006 | [13] 0 | [14] 0.005 | [15] -0.048 | [16] -0.04

ARHGAP5 (UniProt Q13017)
inactive: erlotinib 0.016 | [1] -0.027 | [2] -0.047 | [3] 0.045 | [4] -0.053 | [5] -0.032 | [6] -0.027 | [7] -0.018 | [8] 0.039 | IRAK-1-4 Inhibitor I -0.03 | ibrutinib 0.066 | [9] -0.024 | ralimetinib 0.067 | [10] -0.04 | [11] -0.015 | [12] -0.007 | [13] -0.006 | [14] -0.003 | [15] 0.007 | [16] 0.016

ARFGAP2 (UniProt Q8N6H7)
inactive: erlotinib -0.05 | [1] -0.004 | [2] -0.014 | [3] -0.003 | [4] 0.014 | [5] -0.004 | [6] 0.053 | [7] -0.003 | [8] -0.023 | IRAK-1-4 Inhibitor I -0.03 | ibrutinib 0.037 | [9] 0.004 | ralimetinib 0.036 | [10] 0.012 | [11] 0.02 | [12] 0.007 | [13] 0.04 | [14] 0.025 | [15] 0.001 | [16] 0.003

Quoted at random: 2 entries already listed, in no set order.
APIP (UniProt Q96GX9)
inactive: erlotinib -0.024 | [1] -0.077 | [2] -0.014 | [3] 0.004 | [4] 0 | [5] -0.002 | [6] -0.026 | [7] 0.03 | [8] 0.078 | IRAK-1-4 Inhibitor I -0.012 | ibrutinib -0.031 | [9] -0.009 | ralimetinib 0.05 | [10] -0.004 | [11] 0.004 | [12] 0.006 | [13] 0 | [14] 0.005 | [15] -0.048 | [16] -0.04

ARFGAP2 (UniProt Q8N6H7)
inactive: erlotinib -0.05 | [1] -0.004 | [2] -0.014 | [3] -0.003 | [4] 0.014 | [5] -0.004 | [6] 0.053 | [7] -0.003 | [8] -0.023 | IRAK-1-4 Inhibitor I -0.03 | ibrutinib 0.037 | [9] 0.004 | ralimetinib 0.036 | [10] 0.012 | [11] 0.02 | [12] 0.007 | [13] 0.04 | [14] 0.025 | [15] 0.001 | [16] 0.003

(cont.)

ARL6IP1 (UniProt Q15041)
inactive: erlotinib -0.025 | [1] 0.043 | [2] 0.038 | [3] -0.026 | [4] -0.087 | [5] -0.032 | [6] 0.022 | [7] 0.02 | [8] -0.01 | IRAK-1-4 Inhibitor I 0.035 | ibrutinib 0.141 | [9] 0.007 | ralimetinib -0.021 | [10] 0.024 | [11] -0.033 | [12] -0.004 | [13] -0.04 | [14] -0.025 | [15] 0.018 | [16] -0.02

ARHGAP21 (UniProt Q5T5U3)
inactive: erlotinib -0.013 | [1] -0.182 | [2] -0.025 | [3] -0.098 | [4] -0.214 | [5] -0.018 | [6] -0.137 | [7] -0.118 | [8] -0.018 | IRAK-1-4 Inhibitor I 0.056 | ibrutinib 0.016 | [9] 0.047 | ralimetinib 0.017 | [10] -0.047 | [11] 0.022 | [12] 0.077 | [13] -0.053 | [14] 0.062 | [15] 0.052 | [16] -0.015

ARID3B (UniProt Q8IVW6)
inactive: erlotinib 0.01 | [1] -0.004 | [2] 0.029 | [3] 0.004 | [4] 0.004 | [5] 0 | [6] -0.01 | [7] -0.036 | [8] 0.071 | IRAK-1-4 Inhibitor I -0.013 | ibrutinib 0.09 | [9] -0.059 | ralimetinib -0.015 | [10] -0.048 | [11] 0.002 | [12] -0.008 | [13] -0.006 | [14] -0.011 | [15] 0.034 | [16] 0.024

ARFGEF2 (UniProt Q9Y6D5)
inactive: erlotinib 0.039 | [1] -0.035 | [2] -0.041 | [3] -0.023 | [4] 0.007 | [5] -0.036 | [6] -0.044 | [7] 0.016 | [8] 0.031 | IRAK-1-4 Inhibitor I -0.001 | ibrutinib 0.029 | [9] 0.023 | ralimetinib 0.004 | [10] -0.04 | [11] -0.019 | [12] 0.027 | [13] 0.007 | [14] 0.011 | [15] 0.001 | [16] -0.028

ARHGAP35 (UniProt Q9NRY4)
inactive: erlotinib 0.029 | [1] 0.01 | [2] -0.019 | [3] 0.034 | [4] -0.008 | [5] -0.002 | [6] -0.014 | [7] -0.01 | [8] 0.013 | IRAK-1-4 Inhibitor I 0.016 | ibrutinib -0.027 | [9] -0.009 | ralimetinib 0 | [10] -0.01 | [11] 0.003 | [12] 0 | [13] -0.006 | [14] -0.009 | [15] 0.051 | [16] 0.026

ASAP3 (UniProt Q8TDY4)
inactive: erlotinib 0.021 | [1] 0.025 | [2] 0.016 | [3] -0.048 | [4] -0.025 | [5] -0.004 | [6] -0.042 | [7] -0.001 | [8] 0.03 | IRAK-1-4 Inhibitor I 0.013 | ibrutinib -0.05 | [9] 0.011 | ralimetinib 0.032 | [10] -0.099 | [11] 0.001 | [12] -0.015 | [13] -0.002 | [14] -0.038 | [15] 0.012 | [16] -0.004
